Measured values as given in paper PMC12849885.
For at least one entry, the source does not settle the construct or the ends of the probe.

How the values were obtained:
[1] = test system: His-FoxO (Recilia dorsalis); experiment: EMSA; settings: supershift with anti-FoxO antibody; EMSA/Gel-Shift Binding Buffer (Beyotime GS005), 25 C, 20 min; 6% polyacrylamide gel in Tris-borate; salt and pH not stated; recombinant protein; protein details: His; label: Cy5 (legend of Fig 5D says biotin)
[2] = test system: His-FoxO (Recilia dorsalis); experiment: competition with a labelled probe; settings: unlabeled dilution series against labeled probe B; EMSA/Gel-Shift Binding Buffer (Beyotime GS005), 25 C, 20 min; 6% polyacrylamide gel in Tris-borate; salt and pH not stated; recombinant protein; protein details: His

Row | Sequence | binding result [1] | binding result [2]
1 | ATCATAAATATGTTTATTTATGATAATTTA (double strand) [BOK promoter probe B] | binds | 
2 | ATCATAAATATGTTTATTTATGATAATTTA (double strand) [unlabeled competitor B] |  | binds
